Experimental findings from the supplement of paper PMC10849652 are described below.

Sequences of proteins named here, by UniProt entry; tags and fusion partners are left off. A change or cut given only in a name is not applied to a line headed by its entry.
UniProt O95793: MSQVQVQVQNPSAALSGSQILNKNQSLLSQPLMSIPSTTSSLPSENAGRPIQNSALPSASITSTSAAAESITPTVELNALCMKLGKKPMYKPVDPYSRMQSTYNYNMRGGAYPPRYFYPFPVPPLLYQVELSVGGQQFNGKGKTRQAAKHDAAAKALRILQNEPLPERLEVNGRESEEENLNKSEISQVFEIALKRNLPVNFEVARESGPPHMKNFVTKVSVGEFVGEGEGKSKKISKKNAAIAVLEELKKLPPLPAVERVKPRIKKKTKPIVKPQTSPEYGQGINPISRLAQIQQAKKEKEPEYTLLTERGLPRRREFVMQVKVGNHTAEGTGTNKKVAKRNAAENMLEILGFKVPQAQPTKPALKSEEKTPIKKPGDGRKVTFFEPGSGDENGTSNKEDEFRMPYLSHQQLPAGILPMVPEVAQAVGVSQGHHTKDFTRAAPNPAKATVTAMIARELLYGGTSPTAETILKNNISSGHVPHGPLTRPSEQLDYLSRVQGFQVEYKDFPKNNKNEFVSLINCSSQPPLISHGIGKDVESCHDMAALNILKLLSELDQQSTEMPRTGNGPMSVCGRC
UniProt Q04837: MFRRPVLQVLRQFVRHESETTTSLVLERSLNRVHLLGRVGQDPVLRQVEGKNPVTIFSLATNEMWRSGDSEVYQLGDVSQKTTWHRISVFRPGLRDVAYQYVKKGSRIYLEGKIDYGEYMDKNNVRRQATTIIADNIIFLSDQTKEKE
UniProt Q8WXA9: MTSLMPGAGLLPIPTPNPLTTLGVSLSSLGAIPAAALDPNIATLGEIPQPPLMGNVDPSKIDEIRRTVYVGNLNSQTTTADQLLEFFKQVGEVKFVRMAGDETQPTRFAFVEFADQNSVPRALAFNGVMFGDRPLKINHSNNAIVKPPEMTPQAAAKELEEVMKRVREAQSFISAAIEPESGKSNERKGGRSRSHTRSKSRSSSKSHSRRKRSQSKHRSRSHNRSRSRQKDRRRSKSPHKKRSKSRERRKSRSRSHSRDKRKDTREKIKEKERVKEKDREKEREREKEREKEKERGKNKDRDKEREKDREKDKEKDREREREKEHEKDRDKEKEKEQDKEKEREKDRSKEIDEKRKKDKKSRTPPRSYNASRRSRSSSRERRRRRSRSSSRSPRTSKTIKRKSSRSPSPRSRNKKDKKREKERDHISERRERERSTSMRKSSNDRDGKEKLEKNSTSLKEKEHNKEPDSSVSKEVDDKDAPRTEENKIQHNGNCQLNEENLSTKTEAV
UniProt O76094: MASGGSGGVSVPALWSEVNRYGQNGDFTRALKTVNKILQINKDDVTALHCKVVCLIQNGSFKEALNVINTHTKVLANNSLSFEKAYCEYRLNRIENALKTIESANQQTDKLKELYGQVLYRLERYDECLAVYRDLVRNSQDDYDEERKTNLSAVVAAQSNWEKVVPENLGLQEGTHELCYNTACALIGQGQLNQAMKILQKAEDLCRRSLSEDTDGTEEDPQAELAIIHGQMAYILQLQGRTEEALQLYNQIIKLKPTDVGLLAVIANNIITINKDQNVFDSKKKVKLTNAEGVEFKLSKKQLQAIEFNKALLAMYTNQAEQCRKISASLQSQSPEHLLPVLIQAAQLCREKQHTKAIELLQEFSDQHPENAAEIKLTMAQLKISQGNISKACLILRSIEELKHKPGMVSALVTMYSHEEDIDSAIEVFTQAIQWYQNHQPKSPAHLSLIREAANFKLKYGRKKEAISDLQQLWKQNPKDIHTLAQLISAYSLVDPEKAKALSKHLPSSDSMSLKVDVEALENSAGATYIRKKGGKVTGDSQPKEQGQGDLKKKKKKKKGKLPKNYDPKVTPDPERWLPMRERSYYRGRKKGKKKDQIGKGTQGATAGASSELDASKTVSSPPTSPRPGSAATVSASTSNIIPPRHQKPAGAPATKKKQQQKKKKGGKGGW
UniProt Q9NZD8: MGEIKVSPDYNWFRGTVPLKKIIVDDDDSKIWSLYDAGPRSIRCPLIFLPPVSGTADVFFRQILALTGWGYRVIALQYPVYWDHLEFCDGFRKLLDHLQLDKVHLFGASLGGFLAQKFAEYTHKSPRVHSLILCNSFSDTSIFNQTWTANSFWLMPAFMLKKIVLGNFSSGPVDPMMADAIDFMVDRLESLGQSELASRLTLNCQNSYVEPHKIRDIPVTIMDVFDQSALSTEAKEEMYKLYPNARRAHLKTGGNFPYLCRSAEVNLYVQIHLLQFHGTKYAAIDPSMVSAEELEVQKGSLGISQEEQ
UniProt Q8N0X7: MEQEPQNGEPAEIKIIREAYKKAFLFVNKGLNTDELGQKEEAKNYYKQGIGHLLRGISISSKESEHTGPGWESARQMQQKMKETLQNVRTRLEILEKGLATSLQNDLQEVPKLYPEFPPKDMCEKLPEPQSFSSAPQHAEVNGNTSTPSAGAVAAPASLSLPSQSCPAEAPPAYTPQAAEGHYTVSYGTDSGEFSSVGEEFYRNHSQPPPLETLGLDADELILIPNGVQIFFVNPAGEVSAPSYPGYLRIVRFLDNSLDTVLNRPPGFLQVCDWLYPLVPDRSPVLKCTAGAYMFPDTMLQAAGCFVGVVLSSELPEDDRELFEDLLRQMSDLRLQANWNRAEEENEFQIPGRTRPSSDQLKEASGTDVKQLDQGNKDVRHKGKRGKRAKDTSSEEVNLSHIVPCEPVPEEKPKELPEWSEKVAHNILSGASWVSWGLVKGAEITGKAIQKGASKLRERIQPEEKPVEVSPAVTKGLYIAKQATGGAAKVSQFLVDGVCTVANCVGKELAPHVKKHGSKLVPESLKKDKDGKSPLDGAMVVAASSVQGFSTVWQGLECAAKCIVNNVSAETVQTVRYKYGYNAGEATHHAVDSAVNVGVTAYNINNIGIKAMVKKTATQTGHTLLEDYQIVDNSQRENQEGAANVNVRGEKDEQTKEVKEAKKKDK
UniProt P05455: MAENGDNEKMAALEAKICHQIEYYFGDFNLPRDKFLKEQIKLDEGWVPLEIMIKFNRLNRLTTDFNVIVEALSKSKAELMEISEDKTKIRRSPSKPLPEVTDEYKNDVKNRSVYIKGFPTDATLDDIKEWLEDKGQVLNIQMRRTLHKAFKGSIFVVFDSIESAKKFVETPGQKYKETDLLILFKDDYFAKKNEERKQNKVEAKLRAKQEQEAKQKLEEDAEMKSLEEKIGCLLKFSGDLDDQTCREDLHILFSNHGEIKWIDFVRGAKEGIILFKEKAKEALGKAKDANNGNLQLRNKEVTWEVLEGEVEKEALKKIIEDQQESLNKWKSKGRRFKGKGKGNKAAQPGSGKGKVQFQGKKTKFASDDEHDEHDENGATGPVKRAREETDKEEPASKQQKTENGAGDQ
UniProt P51571: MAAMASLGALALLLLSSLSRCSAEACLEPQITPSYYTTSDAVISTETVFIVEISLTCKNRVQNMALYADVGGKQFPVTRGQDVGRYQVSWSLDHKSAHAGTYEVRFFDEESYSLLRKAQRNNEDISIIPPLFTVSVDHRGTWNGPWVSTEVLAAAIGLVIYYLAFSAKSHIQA
UniProt Q8NEF9: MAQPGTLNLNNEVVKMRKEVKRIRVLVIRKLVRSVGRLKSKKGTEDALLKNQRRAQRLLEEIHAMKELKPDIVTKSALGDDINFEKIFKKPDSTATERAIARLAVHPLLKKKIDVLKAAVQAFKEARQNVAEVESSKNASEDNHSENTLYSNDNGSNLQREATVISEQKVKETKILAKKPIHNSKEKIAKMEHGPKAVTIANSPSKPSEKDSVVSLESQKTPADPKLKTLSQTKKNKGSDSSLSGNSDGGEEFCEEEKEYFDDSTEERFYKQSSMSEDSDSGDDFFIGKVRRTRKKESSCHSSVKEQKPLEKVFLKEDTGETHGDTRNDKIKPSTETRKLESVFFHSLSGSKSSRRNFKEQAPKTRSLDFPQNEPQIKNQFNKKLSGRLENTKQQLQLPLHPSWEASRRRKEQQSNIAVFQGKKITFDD
UniProt Q9NQZ5: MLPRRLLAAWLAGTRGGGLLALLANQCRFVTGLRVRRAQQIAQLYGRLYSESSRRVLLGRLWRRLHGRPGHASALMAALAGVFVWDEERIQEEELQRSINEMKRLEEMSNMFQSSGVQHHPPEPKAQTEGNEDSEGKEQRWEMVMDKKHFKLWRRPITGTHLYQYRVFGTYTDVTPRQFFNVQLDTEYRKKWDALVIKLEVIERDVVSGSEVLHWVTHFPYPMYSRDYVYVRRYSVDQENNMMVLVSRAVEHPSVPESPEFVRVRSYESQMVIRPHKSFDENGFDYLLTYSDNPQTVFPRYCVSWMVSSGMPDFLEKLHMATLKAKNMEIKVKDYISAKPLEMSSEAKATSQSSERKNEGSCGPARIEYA
UniProt Q16629: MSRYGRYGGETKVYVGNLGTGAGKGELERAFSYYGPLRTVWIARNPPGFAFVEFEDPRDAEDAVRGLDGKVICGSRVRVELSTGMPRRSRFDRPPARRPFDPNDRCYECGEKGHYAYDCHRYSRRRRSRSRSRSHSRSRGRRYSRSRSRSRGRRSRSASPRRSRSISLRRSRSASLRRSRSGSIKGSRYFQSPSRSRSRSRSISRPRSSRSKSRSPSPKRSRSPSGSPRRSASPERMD
UniProt P42229: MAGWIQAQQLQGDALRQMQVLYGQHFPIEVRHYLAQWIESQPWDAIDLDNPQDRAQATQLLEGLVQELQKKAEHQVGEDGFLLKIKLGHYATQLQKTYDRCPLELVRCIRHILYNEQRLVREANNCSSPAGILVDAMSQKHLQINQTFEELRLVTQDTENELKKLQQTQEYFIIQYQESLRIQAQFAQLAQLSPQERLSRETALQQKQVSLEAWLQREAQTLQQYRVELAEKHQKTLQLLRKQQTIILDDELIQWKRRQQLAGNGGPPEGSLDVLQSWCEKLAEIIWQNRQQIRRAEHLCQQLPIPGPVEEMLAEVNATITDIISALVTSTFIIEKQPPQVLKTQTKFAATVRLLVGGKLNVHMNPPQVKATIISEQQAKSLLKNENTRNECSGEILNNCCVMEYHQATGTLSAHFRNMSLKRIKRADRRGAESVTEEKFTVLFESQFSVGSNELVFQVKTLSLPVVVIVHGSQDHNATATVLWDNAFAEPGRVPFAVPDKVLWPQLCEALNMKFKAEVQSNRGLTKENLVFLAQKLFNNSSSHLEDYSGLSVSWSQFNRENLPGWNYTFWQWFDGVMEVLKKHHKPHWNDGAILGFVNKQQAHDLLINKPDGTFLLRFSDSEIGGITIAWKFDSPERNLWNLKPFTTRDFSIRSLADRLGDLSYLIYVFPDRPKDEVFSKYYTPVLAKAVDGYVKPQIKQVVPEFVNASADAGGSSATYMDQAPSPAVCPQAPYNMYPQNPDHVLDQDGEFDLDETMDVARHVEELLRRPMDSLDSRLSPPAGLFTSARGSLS

The list shows a part of the results.

Holding throughout (assay): log2 fold change, soluble protein after heating vs DMSO (PISA); higher = thermal stabilisation; K562 cells, 10 uM, 30 min; active = over 0.2 and 3.5 SD of the protein, either way, in both replicates (recomputed)
Compound in one assay: CN1CCN(CCOc2cc(OC3CCOCC3)c3c(Nc4c(Cl)ccc5c4OCO5)ncnc3c2)CC1 [saracatinib]
A digest of the protocol: (§1)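 Soluble protein was defined as the supernatant after 21,000xg for 90 min. It came from K562 cells at 2×10^6 cells/mL given 10 μM compound for 30 min, heated in aliquots for 3 min across 48°C-58°C, pooled, and extracted in PBS with 0.5% NP-40 at 4°C, and was quantified by TMTpro 16plex LC-MS/MS with equalised channel sums. Thermal stability against control samples, from duplicates, is reported as log2 fold change.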

Compound in the next assay: CN1CCN(c2nc(C3=C(c4c[nH]c5ccccc45)C(=O)NC3=O)c3ccccc3n2)CC1 [sotrastaurin]
A digest of the protocol:
as §1

Compound in the next assay: CN1CC[C@H](c2c(O)cc(O)c3c(=O)cc(-c4ccccc4Cl)oc23)[C@H](O)C1 [alvocidib]
A digest of the protocol: as §1

Compound in another assay: CN1CCc2c(c3ccccc3n2Cc2ccc(C(=O)NO)cc2)C1 [Tubastatin A]
A digest of the protocol: as §1

Compound in assay [1]: CNC(=O)C1=CC=CC=C1NC2=NC(=NC=C2Cl)NC3=C(C=C(C=C3)N4CCOCC4)OC
A digest of the protocol: as §1

Compound in a further assay: CNC(=O)c1ccc(Nc2ncc(C(F)(F)F)c(NCc3nccnc3N(C)S(C)(=O)=O)n2)cc1 [defactinib]
The method in brief:
as §1

Compound in a further assay: CNCc1ccc(-c2[nH]c3cc(F)cc4c3c2CCNC4=O)cc1 [rucaparib]
A digest of the protocol: as §1

Compound in assay [2]: CNc1nc(-c2ccc3c(N)n[nH]c3c2)cc(N2C[C@@H](C(=O)NC3CCCCC3)CC[C@H]2C)n1
A digest of the protocol: as §1

Compound in the next assay: COC(=O)N[C@@H](C)CNc1nccc(-c2cn(C(C)C)nc2-c2cc(Cl)cc(NS(C)(=O)=O)c2F)n1 [encorafenib]
The method in brief: as §1

Compound in assay [3]: COC(=O)[C@H](CCSC)NC(=O)C1=C(C=C(C=C1)NC[C@H](CS)N)C2=CC=CC=C2
The method in brief: as §1

For the target STAU1 (UniProt O95793), the log2 fold change with saracatinib is inactive: -0.133; with sotrastaurin, inactive: -0.019; with alvocidib, inactive: 0.358; in the assay with Tubastatin A, inactive: 0.17; in assay [1], inactive: 0.037; in the assay with defactinib, inactive: 0.37. The log2 fold change in the assay with rucaparib was inactive: 0.338; in assay [2], inactive: 0.142; with encorafenib it was inactive: 0.137; in assay [3], inactive: 0.034.
For SSBP1 (UniProt Q04837), the log2 fold change was inactive: -0.031 in the assay with saracatinib; inactive: 0.038 with sotrastaurin; inactive: 0.053 in the assay with alvocidib; inactive: 0.032 with Tubastatin A; inactive: -0.001 in assay [1]; inactive: 0.045 with defactinib. Besides, the log2 fold change with rucaparib was inactive: 0.013; in [2], inactive: -0.022; with encorafenib, inactive: -0.001; in assay [3], inactive: 0.017.
Turning to SREK1 isoform 2 (UniProt Q8WXA9), the log2 fold change with saracatinib was inactive: -0.034; in the assay with sotrastaurin, inactive: -0.106; in the assay with Tubastatin A, inactive: 0.061; in assay [1] it was inactive: -0.422; in the assay with defactinib, inactive: -0.371; with rucaparib it was inactive: 0.083. The log2 fold change in [2] is inactive: 0.013; in the assay with encorafenib, inactive: 0.059; in assay [3] it was inactive: -0.007.
In the case of SRP72 (UniProt O76094), the log2 fold change is inactive: -0.102 with saracatinib; inactive: -0.181 with sotrastaurin; inactive: 0.119 with Tubastatin A; inactive: 0.04 in assay [1]; inactive: -0.035 with defactinib; inactive: 0.184 in the assay with rucaparib. Also, the log2 fold change in assay [2] is inactive: 0.055; with encorafenib, inactive: 0.155; in assay [3], inactive: -0.134.
SPG21 (UniProt Q9NZD8): the log2 fold change was inactive: 0.007 with saracatinib; inactive: -0.005 with sotrastaurin; inactive: 0.016 in the assay with Tubastatin A; inactive: -0.015 in assay [1]; inactive: -0.134 in the assay with defactinib; inactive: 0.089 with rucaparib. Besides, the results for the log2 fold change (in [2]; with encorafenib; in assay [3]) were inactive: 0.211, inactive: -0.022 and inactive: 0.01, respectively.
As to SPART (UniProt Q8N0X7), the log2 fold change is inactive: -0.03 with saracatinib; inactive: -0.011 in the assay with sotrastaurin; inactive: -0.05 with Tubastatin A; inactive: 0.001 in [1]; inactive: -0.109 with defactinib; inactive: -0.02 in the assay with rucaparib. The results for the log2 fold change (in assay [2]; in the assay with encorafenib; in assay [3]) were inactive: -0.032, inactive: 0.027 and inactive: -0.014, respectively.
Turning to SSB (UniProt P05455), the log2 fold change with saracatinib is inactive: -0.001; with sotrastaurin, inactive: -0.158; with Tubastatin A it was inactive: 0.015; in assay [1] it was inactive: 0.016; in the assay with defactinib, inactive: -0.187; with rucaparib, inactive: -0.031. Besides, the log2 fold change in assay [2] was inactive: -0.089; with encorafenib, inactive: 0; in [3], inactive: 0.042.
On to SSR4 (UniProt P51571), for which the log2 fold change in the assay with saracatinib is inactive: -0.008; in the assay with sotrastaurin, inactive: 0.013; with Tubastatin A it was inactive: 0.006; in assay [1], inactive: 0.014; with defactinib, inactive: 0.015; with rucaparib, inactive: 0. Moreover, the log2 fold change in [2] is inactive: 0.004; with encorafenib, inactive: -0.028; in assay [3] it was inactive: -0.007.
Consider SRFBP1 (UniProt Q8NEF9), for which the log2 fold change with saracatinib is inactive: 0.038; with sotrastaurin, inactive: -0.01; with Tubastatin A it was inactive: 0.084; in [1], inactive: 0.052; with rucaparib it was active: 0.446; in assay [2], inactive: -0.15. Also, the log2 fold change with encorafenib was inactive: -0.057.
Take STARD7 (UniProt Q9NQZ5): the log2 fold change is inactive: -0.021 in the assay with saracatinib; inactive: 0.041 in the assay with sotrastaurin; inactive: -0.005 with Tubastatin A; inactive: -0.012 in assay [1]; inactive: -0.047 with defactinib; inactive: -0.009 with rucaparib. The log2 fold change is inactive: -0.014 in assay [2], inactive: 0.03 with encorafenib and inactive: -0.043 in assay [3].
On to SRCAP (UniProt Q6ZRS2), for which the log2 fold change is inactive: 0.032 with saracatinib; inactive: -0.045 in the assay with sotrastaurin; active: -0.486 with Tubastatin A; inactive: -0.069 in assay [1]; inactive: -0.004 with defactinib; inactive: -0.058 with rucaparib. For the same target, the log2 fold change in assay [2] was inactive: -0.028; with encorafenib, inactive: 0.009; in assay [3], inactive: -0.015.
For SRSF7 (UniProt Q16629), the log2 fold change was inactive: -0.014 with saracatinib; inactive: 0.12 with sotrastaurin; inactive: 0.006 with Tubastatin A; inactive: -0.226 in [1]; inactive: 0.168 in the assay with defactinib; inactive: 0.3 with rucaparib. Moreover, the log2 fold change was inactive: -0.04 in assay [2], inactive: 0.038 in the assay with encorafenib and inactive: 0.042 in assay [3].
STAT5A (UniProt P42229): the log2 fold change with saracatinib was inactive: -0.093; with sotrastaurin it was inactive: -0.14; with Tubastatin A it was inactive: 0.088; in assay [1], inactive: -0.001; with defactinib, inactive: -0.273; with rucaparib, inactive: 0.006. The log2 fold change in assay [2] was inactive: 0.054; with encorafenib it was inactive: 0.088; in assay [3], inactive: -0.059.
